Source: publication PMC3923683
These are yes or no findings as the source states them, for the method shown. For some assays here: In cells and extracts the contact can be indirect. Some results given as binding are weak or reduced against the parent protein; the word gives no strength. For some assays here: Tags and fused reporters may be left off the sequences shown.

How the values were obtained:
[1] = target: T1, FLAG and S tagged AZI1, stably expressed in 293T cells, Q9UPN4; assay: co-IP; 293T cells stably expressing FLAG and S tagged AZI1 (parental cells as negative control); FLAG agarose beads; input and precipitate Western blotted; settings: remark: other sources report otherwise
T1 chain: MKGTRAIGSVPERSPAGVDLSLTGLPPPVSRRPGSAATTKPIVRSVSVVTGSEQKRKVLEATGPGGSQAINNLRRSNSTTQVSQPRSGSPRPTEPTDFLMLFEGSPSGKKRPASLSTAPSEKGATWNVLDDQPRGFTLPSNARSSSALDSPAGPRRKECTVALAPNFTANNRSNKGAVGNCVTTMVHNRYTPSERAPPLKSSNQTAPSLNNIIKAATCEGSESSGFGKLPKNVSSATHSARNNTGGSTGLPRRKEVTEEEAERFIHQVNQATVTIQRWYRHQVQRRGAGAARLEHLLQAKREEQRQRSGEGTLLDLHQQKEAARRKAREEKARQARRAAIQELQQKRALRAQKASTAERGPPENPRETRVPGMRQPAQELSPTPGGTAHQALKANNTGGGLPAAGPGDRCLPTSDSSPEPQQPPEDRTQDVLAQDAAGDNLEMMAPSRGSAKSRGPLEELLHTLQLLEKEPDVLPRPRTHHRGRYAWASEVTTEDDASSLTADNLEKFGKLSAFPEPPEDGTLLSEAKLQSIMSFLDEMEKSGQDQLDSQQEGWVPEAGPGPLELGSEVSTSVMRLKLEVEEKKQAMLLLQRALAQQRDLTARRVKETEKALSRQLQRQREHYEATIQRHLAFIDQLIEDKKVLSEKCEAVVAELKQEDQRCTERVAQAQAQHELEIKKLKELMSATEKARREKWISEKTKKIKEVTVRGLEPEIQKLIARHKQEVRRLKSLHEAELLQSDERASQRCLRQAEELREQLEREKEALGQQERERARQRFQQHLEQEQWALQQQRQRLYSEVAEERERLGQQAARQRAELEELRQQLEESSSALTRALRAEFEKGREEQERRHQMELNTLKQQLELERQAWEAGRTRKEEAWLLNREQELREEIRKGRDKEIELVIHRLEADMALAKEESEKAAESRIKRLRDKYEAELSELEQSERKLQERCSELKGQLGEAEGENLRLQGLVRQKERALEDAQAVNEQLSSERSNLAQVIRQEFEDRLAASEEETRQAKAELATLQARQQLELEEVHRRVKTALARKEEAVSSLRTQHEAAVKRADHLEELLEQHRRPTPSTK

[2] = target: T2, LAP (localization and purification) tagged human BBS4 (human) (UniProt Q96RK4); assay: tandem affinity purification (TAP); tissue lysates from LAP-BBS4 transgenic mice; how the co-purified proteins were detected is not stated
T2 sequence: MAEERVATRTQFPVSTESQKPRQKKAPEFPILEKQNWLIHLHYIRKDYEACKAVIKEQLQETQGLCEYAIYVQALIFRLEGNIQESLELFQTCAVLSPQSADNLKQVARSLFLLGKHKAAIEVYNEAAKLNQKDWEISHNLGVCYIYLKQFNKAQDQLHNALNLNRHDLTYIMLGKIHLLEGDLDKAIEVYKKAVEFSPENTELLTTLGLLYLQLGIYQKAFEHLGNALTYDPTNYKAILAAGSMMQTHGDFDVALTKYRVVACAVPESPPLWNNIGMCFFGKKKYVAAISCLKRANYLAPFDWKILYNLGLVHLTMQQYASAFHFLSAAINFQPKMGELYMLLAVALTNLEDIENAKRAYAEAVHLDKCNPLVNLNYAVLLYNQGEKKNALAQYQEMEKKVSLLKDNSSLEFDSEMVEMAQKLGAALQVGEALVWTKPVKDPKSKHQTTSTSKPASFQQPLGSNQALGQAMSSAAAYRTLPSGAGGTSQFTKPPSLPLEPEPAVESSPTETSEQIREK

[3] = target: T3, BBS4, endogenous in 293T cells (human (endogenous in 293T)) (UniProt Q96RK4); assay: co-sedimentation; 293T cell lysates (control, AZI1 or PCM1 siRNA) separated by 10-40% sucrose gradient ultracentrifugation; fractions 7-19 immunoblotted for BBS proteins, AZI1 and PCM1
T3 sequence: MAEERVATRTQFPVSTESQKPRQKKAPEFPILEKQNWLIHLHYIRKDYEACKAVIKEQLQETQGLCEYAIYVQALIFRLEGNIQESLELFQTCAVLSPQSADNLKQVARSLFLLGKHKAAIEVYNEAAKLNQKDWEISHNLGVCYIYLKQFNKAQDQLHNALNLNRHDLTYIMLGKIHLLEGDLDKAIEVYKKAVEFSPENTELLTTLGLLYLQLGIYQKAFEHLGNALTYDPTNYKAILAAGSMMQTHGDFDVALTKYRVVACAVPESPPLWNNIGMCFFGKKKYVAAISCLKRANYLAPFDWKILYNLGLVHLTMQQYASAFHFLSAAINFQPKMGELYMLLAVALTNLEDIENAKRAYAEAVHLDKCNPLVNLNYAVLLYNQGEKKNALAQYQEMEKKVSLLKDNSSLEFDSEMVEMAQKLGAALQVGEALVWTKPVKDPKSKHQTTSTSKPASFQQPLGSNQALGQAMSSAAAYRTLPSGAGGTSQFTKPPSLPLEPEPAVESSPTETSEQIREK

[4] = target: T4, FLAG-BBS4, stably expressed in 293T cells (UniProt Q96RK4); assay: co-IP; 293T cells stably expressing FLAG tagged BBS4, 5, 8 or 9; FLAG agarose beads; immunoblot with AZI1 antibody
T4 sequence: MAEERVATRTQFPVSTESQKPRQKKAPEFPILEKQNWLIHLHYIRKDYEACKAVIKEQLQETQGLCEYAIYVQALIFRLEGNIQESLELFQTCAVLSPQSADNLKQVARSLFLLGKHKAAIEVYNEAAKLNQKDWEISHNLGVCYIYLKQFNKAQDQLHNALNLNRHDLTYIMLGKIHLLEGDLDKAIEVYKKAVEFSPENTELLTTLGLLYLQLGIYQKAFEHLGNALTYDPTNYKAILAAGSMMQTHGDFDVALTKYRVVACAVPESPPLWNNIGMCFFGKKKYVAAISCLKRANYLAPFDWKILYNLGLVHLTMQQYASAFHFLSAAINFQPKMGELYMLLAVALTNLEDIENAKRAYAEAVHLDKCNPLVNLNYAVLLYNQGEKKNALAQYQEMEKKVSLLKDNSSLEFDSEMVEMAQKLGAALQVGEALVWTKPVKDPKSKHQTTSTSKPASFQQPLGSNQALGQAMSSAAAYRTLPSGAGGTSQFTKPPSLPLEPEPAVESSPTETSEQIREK

[5] = target: T5, FLAG and S tagged BBS4, transiently transfected (UniProt Q96RK4); assay: co-IP; 293T cells transiently transfected with individual FLAG and S tagged BBSome subunits; FLAG agarose beads; immunoblot with AZI1 and PCM1 antibody
T5 sequence: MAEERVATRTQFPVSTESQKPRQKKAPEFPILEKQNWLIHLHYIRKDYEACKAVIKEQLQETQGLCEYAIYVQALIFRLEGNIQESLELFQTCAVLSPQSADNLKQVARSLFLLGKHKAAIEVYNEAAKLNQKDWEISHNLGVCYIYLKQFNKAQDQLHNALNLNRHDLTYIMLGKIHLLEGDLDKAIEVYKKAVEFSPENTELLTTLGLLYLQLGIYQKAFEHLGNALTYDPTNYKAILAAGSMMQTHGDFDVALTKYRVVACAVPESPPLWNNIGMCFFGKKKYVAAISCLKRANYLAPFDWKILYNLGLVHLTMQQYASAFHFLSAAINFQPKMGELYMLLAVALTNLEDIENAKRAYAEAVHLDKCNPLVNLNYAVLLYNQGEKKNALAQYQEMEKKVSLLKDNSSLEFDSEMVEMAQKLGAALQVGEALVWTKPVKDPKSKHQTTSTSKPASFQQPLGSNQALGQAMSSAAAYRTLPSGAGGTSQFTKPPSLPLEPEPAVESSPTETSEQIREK

B1: AZI1, endogenous in 293T cells, Q9UPN4 1-1083 (protein)
chain: MKGTRAIGSVPERSPAGVDLSLTGLPPPVSRRPGSAATTKPIVRSVSVVTGSEQKRKVLEATGPGGSQAINNLRRSNSTTQVSQPRSGSPRPTEPTDFLMLFEGSPSGKKRPASLSTAPSEKGATWNVLDDQPRGFTLPSNARSSSALDSPAGPRRKECTVALAPNFTANNRSNKGAVGNCVTTMVHNRYTPSERAPPLKSSNQTAPSLNNIIKAATCEGSESSGFGKLPKNVSSATHSARNNTGGSTGLPRRKEVTEEEAERFIHQVNQATVTIQRWYRHQVQRRGAGAARLEHLLQAKREEQRQRSGEGTLLDLHQQKEAARRKAREEKARQARRAAIQELQQKRALRAQKASTAERGPPENPRETRVPGMRQPAQELSPTPGGTAHQALKANNTGGGLPAAGPGDRCLPTSDSSPEPQQPPEDRTQDVLAQDAAGDNLEMMAPSRGSAKSRGPLEELLHTLQLLEKEPDVLPRPRTHHRGRYAWASEVTTEDDASSLTADNLEKFGKLSAFPEPPEDGTLLSEAKLQSIMSFLDEMEKSGQDQLDSQQEGWVPEAGPGPLELGSEVSTSVMRLKLEVEEKKQAMLLLQRALAQQRDLTARRVKETEKALSRQLQRQREHYEATIQRHLAFIDQLIEDKKVLSEKCEAVVAELKQEDQRCTERVAQAQAQHELEIKKLKELMSATEKARREKWISEKTKKIKEVTVRGLEPEIQKLIARHKQEVRRLKSLHEAELLQSDERASQRCLRQAEELREQLEREKEALGQQERERARQRFQQHLEQEQWALQQQRQRLYSEVAEERERLGQQAARQRAELEELRQQLEESSSALTRALRAEFEKGREEQERRHQMELNTLKQQLELERQAWEAGRTRKEEAWLLNREQELREEIRKGRDKEIELVIHRLEADMALAKEESEKAAESRIKRLRDKYEAELSELEQSERKLQERCSELKGQLGEAEGENLRLQGLVRQKERALEDAQAVNEQLSSERSNLAQVIRQEFEDRLAASEEETRQAKAELATLQARQQLELEEVHRRVKTALARKEEAVSSLRTQHEAAVKRADHLEELLEQHRRPTPSTK
binding [1]: binds

B2: Lztfl1 (protein, UniProt Q9JHQ5 1-299)
chain: MAELGLNEHHQNEVINYMRFARSKRGLRLKTVDSCFQDLKDSRLVEETFTIDEVSEVLNGLQAVVHSEVESELINTAYTNVLLLRQLFSQAEKWYLKLQTDISELENRELLEQVAEFEKAEFVSSSKKPIIDITKPKLVPINEGGTTELLNKEILRLQQENEKLKSRLKTIEIQAVNALDEKSKLERVLQDLQLDQENQQDLLKAQDLDDLENTVATLRSEFQKTLNDKTENQKSLEENLAAAKHDLLRVQEQLSMAEKELEKKFQQTAAYRNMKEILTKKNDQIKDLRKRLAKYESED
binding [2]: binds

B3: AZI1, endogenous in 293T cells (protein, UniProt Q9UPN4 1-1083)
chain: MKGTRAIGSVPERSPAGVDLSLTGLPPPVSRRPGSAATTKPIVRSVSVVTGSEQKRKVLEATGPGGSQAINNLRRSNSTTQVSQPRSGSPRPTEPTDFLMLFEGSPSGKKRPASLSTAPSEKGATWNVLDDQPRGFTLPSNARSSSALDSPAGPRRKECTVALAPNFTANNRSNKGAVGNCVTTMVHNRYTPSERAPPLKSSNQTAPSLNNIIKAATCEGSESSGFGKLPKNVSSATHSARNNTGGSTGLPRRKEVTEEEAERFIHQVNQATVTIQRWYRHQVQRRGAGAARLEHLLQAKREEQRQRSGEGTLLDLHQQKEAARRKAREEKARQARRAAIQELQQKRALRAQKASTAERGPPENPRETRVPGMRQPAQELSPTPGGTAHQALKANNTGGGLPAAGPGDRCLPTSDSSPEPQQPPEDRTQDVLAQDAAGDNLEMMAPSRGSAKSRGPLEELLHTLQLLEKEPDVLPRPRTHHRGRYAWASEVTTEDDASSLTADNLEKFGKLSAFPEPPEDGTLLSEAKLQSIMSFLDEMEKSGQDQLDSQQEGWVPEAGPGPLELGSEVSTSVMRLKLEVEEKKQAMLLLQRALAQQRDLTARRVKETEKALSRQLQRQREHYEATIQRHLAFIDQLIEDKKVLSEKCEAVVAELKQEDQRCTERVAQAQAQHELEIKKLKELMSATEKARREKWISEKTKKIKEVTVRGLEPEIQKLIARHKQEVRRLKSLHEAELLQSDERASQRCLRQAEELREQLEREKEALGQQERERARQRFQQHLEQEQWALQQQRQRLYSEVAEERERLGQQAARQRAELEELRQQLEESSSALTRALRAEFEKGREEQERRHQMELNTLKQQLELERQAWEAGRTRKEEAWLLNREQELREEIRKGRDKEIELVIHRLEADMALAKEESEKAAESRIKRLRDKYEAELSELEQSERKLQERCSELKGQLGEAEGENLRLQGLVRQKERALEDAQAVNEQLSSERSNLAQVIRQEFEDRLAASEEETRQAKAELATLQARQQLELEEVHRRVKTALARKEEAVSSLRTQHEAAVKRADHLEELLEQHRRPTPSTK
binding [3]: binds
binding [4]: binds
binding [5]: binds
